Source: publication PMC12272085
Results are given in words; binding and its absence hold for the method and conditions named. For some assays here: Binding seen in cells or lysates may run through a third protein. Some entries that bind do so weakly or less than the wild type. For some assays here: Sequences can lack the tags named with a protein.

By UniProt entry, the sequences of proteins in these tests, tags left out. Where a name states a change or a piece, a line headed by the entry shows the natural chain unless it says otherwise. Chains listed by the source or under a name are the forms on record and can include a tag or linker.
UniProt P19338: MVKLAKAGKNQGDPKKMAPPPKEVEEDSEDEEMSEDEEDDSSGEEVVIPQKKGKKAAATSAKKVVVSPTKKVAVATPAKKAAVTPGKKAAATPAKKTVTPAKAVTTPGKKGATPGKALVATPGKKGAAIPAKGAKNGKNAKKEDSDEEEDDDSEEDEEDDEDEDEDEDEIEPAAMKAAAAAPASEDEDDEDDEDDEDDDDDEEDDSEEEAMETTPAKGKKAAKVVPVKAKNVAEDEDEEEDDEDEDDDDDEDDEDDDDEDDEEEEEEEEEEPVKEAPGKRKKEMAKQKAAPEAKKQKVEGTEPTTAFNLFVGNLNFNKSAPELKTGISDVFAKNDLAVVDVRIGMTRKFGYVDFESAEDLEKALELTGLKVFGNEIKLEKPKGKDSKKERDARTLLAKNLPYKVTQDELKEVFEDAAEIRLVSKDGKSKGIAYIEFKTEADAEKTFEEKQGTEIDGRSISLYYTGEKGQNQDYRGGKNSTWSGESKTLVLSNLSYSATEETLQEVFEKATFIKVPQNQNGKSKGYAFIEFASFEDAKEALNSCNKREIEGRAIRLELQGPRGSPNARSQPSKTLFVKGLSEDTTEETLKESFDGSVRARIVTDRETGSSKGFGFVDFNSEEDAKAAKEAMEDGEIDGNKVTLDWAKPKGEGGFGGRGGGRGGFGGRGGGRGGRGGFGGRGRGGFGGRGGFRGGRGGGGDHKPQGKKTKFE
3xFlag-tagged full-length hnRNPA1 (P09651, form named): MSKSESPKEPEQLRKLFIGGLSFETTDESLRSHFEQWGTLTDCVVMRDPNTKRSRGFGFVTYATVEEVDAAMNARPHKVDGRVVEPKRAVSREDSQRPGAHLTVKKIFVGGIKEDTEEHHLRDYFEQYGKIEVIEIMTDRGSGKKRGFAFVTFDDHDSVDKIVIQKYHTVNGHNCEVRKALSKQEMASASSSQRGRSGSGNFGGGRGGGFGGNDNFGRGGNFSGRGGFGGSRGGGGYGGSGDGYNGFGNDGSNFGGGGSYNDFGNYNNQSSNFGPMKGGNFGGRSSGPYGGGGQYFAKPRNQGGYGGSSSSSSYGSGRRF
UniProt Q92804: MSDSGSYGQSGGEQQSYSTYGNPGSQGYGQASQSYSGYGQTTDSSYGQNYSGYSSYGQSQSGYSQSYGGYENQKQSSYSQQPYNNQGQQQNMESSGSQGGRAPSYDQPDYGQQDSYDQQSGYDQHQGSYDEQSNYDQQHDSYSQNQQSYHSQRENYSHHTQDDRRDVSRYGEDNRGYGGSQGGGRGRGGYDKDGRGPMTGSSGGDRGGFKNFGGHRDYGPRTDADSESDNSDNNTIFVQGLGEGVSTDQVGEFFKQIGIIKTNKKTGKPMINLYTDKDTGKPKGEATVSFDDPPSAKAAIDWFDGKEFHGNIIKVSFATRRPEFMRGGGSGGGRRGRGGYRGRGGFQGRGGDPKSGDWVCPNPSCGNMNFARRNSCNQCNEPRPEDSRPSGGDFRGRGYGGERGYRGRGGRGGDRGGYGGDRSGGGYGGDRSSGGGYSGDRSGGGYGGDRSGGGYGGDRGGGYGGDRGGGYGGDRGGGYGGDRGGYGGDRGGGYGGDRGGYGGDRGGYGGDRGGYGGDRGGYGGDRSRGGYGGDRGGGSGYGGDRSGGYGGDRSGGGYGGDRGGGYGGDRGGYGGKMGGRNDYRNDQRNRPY

Key:
[1] = molecular target: T1, 3xFlag-tagged full-length Fibrillarin (UniProt P22087); experiment: co-IP; FLAG-tagged substrate and Myc-PRMT1 (WT or mutant) co-transfected in HEK293T; nuclear and cytoplasmic extracts on anti-Flag resin 2 h, Flag peptide elution, anti-MYC blot
T1 sequence: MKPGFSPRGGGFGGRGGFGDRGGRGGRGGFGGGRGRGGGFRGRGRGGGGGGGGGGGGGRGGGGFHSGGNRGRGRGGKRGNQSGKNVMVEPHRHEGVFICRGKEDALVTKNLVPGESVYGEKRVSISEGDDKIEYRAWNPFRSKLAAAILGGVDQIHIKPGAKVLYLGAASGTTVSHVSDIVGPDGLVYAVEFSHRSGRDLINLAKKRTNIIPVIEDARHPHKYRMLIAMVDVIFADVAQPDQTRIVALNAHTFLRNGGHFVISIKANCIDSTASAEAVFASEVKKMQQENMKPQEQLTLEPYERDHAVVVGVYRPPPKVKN

[2] = molecular target: 3xFlag-tagged full-length Nucleolin (UniProt P19338); experiment: as above
[3] = molecular target: 3xFlag-tagged full-length hnRNPA1 (UniProt P09651); experiment: as above
[4] = molecular target: T2, 3xFlag-tagged full-length GAR1 (UniProt Q9NY12); experiment: as above
T2 sequence: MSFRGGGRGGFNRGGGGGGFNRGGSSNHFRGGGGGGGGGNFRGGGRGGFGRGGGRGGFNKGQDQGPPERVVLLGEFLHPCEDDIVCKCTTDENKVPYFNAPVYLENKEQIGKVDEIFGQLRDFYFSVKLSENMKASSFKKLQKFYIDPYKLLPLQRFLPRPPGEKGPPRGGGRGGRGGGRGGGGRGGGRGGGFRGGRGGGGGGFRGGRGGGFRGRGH

[5] = molecular target: T3, FLAG-tagged RBFOX2 (UniProt O43251); experiment: as above
T3 sequence: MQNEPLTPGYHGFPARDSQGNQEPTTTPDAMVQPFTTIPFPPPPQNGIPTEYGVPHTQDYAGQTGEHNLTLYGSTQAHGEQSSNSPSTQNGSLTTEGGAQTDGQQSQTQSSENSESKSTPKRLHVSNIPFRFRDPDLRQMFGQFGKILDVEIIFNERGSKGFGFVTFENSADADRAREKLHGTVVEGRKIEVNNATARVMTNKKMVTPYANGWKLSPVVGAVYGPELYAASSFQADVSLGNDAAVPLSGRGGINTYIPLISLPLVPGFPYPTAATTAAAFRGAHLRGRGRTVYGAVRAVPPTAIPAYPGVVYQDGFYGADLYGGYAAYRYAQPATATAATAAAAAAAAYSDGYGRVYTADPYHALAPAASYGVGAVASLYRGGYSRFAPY

[6] = molecular target: FLAG-tagged TAF15 (UniProt Q92804); experiment: as above
[7] = molecular target: 3xFlag-tagged full-length hnRNPK (UniProt P61978); experiment: as above
[8] = molecular target: T4, fibrillarin of the PRMT1-Fibrillarin complex (SEC and cryo-EM sample) (UniProt P22087); experiment: SEC; PRMT1-substrate complex on Superose 6 Increase 10/300GL, with PRMT1 oligomers and dimers as controls; fractions on SDS-PAGE; both purified
T4 sequence: T1 sequence

[9] = molecular target: T5, GST-GAR1 (UniProt Q9NY12); experiment: pull-down; GST- or FLAG-tagged substrate on GST beads or anti-FLAG resin, mixed with purified PRMT; 50 mM Tris-HCl pH 8.0, 150 mM NaCl, 2 mM DTT, 10% glycerol, 0.1% NP40, 1 h at 4 C; Coomassie staining; both purified
T5 sequence: T2 sequence

[10] = molecular target: GST-hnRNPK (UniProt P61978); experiment: as above
[11] = molecular target: T6, MBP-Fibrillarin-FLAG (UniProt P22087); experiment: as above
T6 sequence: T1 sequence

binding [1]	binding [2]	binding [3]	binding [4]	binding [5]	binding [6]	binding [7]	binding [8]	binding [9]	binding [10]	binding [11]	Substance
binds	binds	binds	binds	binds	binds	binds					MYC-PRMT1, wild type, full length (from UniProt Q99873 1-371) (enzyme)
							binds	binds	binds	binds	human PRMT1 (residues 32-371), wild type (from UniProt Q99873 32-371) (enzyme)
